Results are given in words; binding and its absence hold for the method and conditions named. Some entries that bind do so weakly or less than the wild type. Where a sequence is shown, tags or fusion partners need not be part of it.
Assays:
Assay in all cases: two-hybrid; Gal4 AD (pGADT7) and BD (pGBKT7) fusions co-transformed into AH109 yeast; growth on SCM-Trp-Leu-His (SCM-3) plates against SCM-Trp-Leu (SCM-2)
[1] = molecular target: T1, hORC2, yeast two-hybrid fusion (human) (UniProt Q13416)
T1 sequence: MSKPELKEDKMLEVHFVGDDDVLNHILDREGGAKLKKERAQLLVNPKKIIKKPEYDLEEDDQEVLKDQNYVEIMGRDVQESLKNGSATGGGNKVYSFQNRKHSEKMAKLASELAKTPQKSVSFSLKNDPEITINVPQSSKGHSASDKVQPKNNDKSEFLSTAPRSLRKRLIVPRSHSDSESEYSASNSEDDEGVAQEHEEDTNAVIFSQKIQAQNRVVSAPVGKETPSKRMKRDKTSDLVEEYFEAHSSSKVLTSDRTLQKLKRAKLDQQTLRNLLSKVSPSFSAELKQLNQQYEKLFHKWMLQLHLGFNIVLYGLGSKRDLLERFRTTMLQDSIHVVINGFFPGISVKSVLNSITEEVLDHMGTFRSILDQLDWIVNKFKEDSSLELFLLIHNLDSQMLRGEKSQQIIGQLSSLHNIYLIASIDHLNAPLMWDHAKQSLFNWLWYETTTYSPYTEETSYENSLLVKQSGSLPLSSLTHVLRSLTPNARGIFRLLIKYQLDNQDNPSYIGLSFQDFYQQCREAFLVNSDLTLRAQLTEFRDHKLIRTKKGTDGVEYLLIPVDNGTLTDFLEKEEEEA

Amino acid sequences for entries named in this document (tags omitted).
UniProt P49736: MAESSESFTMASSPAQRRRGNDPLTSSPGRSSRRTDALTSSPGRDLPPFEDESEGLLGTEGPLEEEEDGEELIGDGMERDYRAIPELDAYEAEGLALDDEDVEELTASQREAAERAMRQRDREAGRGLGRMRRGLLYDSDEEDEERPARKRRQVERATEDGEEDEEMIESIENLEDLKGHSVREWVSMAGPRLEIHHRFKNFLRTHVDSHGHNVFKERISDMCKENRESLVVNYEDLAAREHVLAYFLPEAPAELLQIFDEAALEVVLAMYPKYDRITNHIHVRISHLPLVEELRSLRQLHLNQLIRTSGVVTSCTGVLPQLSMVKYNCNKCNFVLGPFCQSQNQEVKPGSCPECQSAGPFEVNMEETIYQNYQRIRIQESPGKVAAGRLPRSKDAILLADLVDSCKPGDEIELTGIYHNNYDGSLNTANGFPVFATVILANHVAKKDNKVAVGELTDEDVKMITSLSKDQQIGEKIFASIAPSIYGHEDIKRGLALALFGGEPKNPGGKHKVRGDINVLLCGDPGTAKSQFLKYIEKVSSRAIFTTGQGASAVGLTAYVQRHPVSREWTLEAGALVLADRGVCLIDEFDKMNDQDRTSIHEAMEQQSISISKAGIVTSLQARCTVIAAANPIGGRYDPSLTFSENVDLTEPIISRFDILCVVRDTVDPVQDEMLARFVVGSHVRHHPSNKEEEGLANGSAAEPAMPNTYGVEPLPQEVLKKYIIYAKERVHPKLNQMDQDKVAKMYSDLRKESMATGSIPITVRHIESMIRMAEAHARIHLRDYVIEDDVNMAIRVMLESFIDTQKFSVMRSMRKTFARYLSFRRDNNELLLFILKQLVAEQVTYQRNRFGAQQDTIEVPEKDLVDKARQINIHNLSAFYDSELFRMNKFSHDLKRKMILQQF

[2] = molecular target: hMCM2, yeast two-hybrid fusion (human) (UniProt P49736)
[3] = molecular target: T2, hMCM3, yeast two-hybrid fusion (human) (UniProt P25205)
T2 sequence: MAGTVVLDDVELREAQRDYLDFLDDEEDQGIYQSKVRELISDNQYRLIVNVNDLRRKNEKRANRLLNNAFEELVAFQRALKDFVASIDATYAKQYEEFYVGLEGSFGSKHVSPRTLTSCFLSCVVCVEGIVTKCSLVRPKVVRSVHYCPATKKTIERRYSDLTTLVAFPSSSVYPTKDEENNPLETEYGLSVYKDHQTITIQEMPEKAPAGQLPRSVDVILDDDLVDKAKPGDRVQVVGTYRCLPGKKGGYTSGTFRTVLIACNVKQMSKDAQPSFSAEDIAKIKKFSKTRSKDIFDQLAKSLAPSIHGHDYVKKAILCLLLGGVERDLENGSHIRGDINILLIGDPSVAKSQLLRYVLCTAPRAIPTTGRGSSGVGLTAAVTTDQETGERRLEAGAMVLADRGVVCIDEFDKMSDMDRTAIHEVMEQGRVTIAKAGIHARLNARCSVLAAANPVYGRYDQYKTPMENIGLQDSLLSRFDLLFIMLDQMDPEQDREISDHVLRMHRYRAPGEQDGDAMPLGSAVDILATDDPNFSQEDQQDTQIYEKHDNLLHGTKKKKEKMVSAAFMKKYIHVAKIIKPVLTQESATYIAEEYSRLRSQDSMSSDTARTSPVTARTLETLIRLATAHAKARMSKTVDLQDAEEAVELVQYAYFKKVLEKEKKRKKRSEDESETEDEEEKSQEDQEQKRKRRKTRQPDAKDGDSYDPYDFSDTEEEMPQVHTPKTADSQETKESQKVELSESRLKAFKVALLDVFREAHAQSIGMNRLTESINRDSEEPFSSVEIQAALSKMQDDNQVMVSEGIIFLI

[4] = molecular target: T3, hORC4, yeast two-hybrid fusion (human) (UniProt O43929)
T3 sequence: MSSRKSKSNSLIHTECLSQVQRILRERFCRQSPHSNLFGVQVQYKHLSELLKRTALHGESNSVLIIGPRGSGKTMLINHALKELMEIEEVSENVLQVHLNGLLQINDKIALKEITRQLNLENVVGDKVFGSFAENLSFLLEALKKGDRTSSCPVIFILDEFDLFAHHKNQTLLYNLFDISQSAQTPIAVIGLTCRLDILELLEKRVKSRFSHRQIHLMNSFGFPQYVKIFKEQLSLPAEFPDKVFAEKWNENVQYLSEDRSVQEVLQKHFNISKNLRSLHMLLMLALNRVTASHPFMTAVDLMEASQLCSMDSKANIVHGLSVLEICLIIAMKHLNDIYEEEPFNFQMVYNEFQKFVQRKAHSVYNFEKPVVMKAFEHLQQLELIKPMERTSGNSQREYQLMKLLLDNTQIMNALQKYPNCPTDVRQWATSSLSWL

[5] = molecular target: T4, hORC3, yeast two-hybrid fusion (human) (UniProt Q9UBD5)
T4 sequence: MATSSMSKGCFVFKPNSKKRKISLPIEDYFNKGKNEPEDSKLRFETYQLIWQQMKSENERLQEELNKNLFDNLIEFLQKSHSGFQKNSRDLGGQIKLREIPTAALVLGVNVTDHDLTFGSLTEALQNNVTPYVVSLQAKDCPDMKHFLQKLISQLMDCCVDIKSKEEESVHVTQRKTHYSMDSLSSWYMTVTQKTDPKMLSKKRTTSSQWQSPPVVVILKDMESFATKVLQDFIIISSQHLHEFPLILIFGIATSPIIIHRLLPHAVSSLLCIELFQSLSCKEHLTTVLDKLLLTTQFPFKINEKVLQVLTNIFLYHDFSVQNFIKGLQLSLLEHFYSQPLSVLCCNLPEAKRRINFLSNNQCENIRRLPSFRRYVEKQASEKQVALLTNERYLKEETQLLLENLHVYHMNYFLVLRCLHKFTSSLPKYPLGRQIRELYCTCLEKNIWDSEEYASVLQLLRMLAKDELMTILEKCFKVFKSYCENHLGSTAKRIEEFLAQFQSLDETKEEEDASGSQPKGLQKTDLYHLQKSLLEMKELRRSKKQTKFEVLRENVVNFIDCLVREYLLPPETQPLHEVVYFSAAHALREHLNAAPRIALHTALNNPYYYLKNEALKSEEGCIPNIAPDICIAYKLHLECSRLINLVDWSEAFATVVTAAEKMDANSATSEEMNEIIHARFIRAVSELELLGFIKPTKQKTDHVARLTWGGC

Measured: binding

B1: hIPI3 (WDR18, WD repeat domain 18), yeast two-hybrid fusion (protein, UniProt Q9BV38 1-432)
chain: MAAPMEVAVCTDSAAPMWSCIVWELHSGANLLTYRGGQAGPRGLALLNGEYLLAAQLGKNYISAWELQRKDQLQQKIMCPGPVTCLTASPNGLYVLAGVAESIHLWEVSTGNLLVILSRHYQDVSCLQFTGDSSHFISGGKDCLVLVWSLCSVLQADPSRIPAPRHVWSHHALPITDLHCGFGGPLARVATSSLDQTVKLWEVSSGELLLSVLFDVSIMAVTMDLAEHHMFCGGSEGSIFQVDLFTWPGQRERSFHPEQDAGKVFKGHRNQVTCLSVSTDGSVLLSGSHDETVRLWDVQSKQCIRTVALKGPVTNAAILLAPVSMLSSDFRPSLPLPHFNKHLLGAEHGDEPRHGGLTLRLGLHQQGSEPSYLDRTEQLQAVLCSTMEKSVLGGQDQLRVRVTELEDEVRNLRKINRDLFDFSTRFITRPAK
binds: all assays above

Reference: PMC4825987
